The values are deposited in ChEMBL (CHEMBL3988442, “University of Dundee, Small-Polar-MMV Screening Library” (2021)).

The chains behind the UniProt entries cited, without tags or fusion partners. Residues count along the entry.
UniProt A4I591, 1-473: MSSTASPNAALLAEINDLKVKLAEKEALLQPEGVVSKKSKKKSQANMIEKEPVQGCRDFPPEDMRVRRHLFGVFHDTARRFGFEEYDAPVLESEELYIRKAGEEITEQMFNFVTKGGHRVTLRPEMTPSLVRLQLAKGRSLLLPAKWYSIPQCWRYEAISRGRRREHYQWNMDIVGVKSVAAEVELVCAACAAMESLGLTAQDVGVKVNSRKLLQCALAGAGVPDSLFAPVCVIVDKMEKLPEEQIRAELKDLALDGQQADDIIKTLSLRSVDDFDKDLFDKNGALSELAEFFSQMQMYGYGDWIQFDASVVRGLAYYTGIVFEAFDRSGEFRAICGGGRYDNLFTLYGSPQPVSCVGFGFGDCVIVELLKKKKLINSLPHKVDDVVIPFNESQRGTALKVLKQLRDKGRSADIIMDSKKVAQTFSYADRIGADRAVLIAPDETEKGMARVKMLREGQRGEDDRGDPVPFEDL
UniProt P9WNZ1, whole entry: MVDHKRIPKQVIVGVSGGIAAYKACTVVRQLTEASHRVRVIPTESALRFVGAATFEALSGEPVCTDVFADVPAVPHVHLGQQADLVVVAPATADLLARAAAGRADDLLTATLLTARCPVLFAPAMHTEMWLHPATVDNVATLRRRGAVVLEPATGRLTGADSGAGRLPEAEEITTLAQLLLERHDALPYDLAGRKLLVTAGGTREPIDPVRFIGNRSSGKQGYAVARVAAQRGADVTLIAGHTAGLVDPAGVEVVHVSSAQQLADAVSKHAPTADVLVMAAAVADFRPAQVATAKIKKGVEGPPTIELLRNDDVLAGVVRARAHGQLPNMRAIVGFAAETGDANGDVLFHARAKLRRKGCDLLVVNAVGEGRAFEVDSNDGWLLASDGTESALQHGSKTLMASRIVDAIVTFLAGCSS
UniProt P9WFT3, whole entry: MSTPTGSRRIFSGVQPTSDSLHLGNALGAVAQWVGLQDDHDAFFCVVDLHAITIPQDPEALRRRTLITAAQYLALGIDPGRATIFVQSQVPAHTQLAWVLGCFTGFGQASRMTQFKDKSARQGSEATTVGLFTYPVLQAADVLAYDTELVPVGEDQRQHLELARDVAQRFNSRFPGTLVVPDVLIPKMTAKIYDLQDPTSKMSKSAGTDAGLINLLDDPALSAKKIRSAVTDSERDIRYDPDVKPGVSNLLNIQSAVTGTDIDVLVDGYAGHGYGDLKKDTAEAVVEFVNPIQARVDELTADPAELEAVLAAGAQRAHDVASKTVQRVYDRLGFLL

LiHisRS: 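Histidine-tRNA ligase, Leishmania infantum (UniProt A4I591). Enzyme assay of histidyl-tRNA synthetase; the read-out is not stated. Compounds at 30 µM. The record gives no direction; compounds that gave an IC50 in retests scored well above the rest, so higher reads as stronger inhibition. The assay is labelled LdHisRS but filed under L. infantum. About 69,000 compounds were tested under these conditions; 0.6% (about 410) showed 50% or more at least once.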
CoaBC: 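Coenzyme A biosynthesis protein CoaBC, Mycobacterium tuberculosis (UniProt P9WNZ1). Enzyme assay of CoaBC with a phosphate dye (Biomol Green) read at 650 nm. Tested at 30 µM. Higher reads as stronger inhibition, judged from the few compounds that gave an IC50. Most strong results did not repeat in a second test. Size under these conditions: about 67,000 compounds, about 40 of them at 50% or above in at least one test.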
MtTrpRS: 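Tryptophan-tRNA ligase, Mycobacterium tuberculosis (UniProt P9WFT3). Enzyme assay of tryptophanyl-tRNA synthetase; the read-out is not stated. Compounds at 10 µM. Direction is not recorded; retested compounds ran higher, which suggests that high means inhibition. About 65,000 compounds were tested under these conditions; 0.098% (about 64) showed 50% or more at least once.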

The filed quantity is “Percent Effect” (%). How 0% and 100% were set is not recorded. Most values in the screen are low, and negative values occur. This is an unselected part of the compounds tested. A dash means the value is not listed here; it may have been measured.

compound | LiHisRS | CoaBC | MtTrpRS
O=S(=O)(Cc1c(F)cccc1F)NCCOc1cccnc1 | -10.53 | -1.768 | -2.451
OCCNc1cc(-c2ccncc2)ncn1 | 17.14 | 0.1205 | -
COc1cc(Cl)c(C)cc1NC(=O)CNc1ccn(CC(N)=O)n1 | 16.67 | 0.5894 | 3.631
Cn1cc(Br)c(C(=O)NCCCn2cc(Br)cn2)n1 | 17.7 | -4.478 | 5.305
Cc1nc2cc(C(=O)N(CCN(C)C)CCN(C)C)ccc2n1C | 6.383 | -4.963 | 1.079
CN(CC(C)(C)O)C1CCCN(Cc2noc(C3CC3)n2)C1 (configuration not stated) | 2.632 | -0.6519 | 23.39
Cc1ccccc1C1(CN)CCCCC1 | 8.889 | 0.7353 | 9.136
CO[C@H]1CN(Cc2ccc(C)o2)[C@@H]2CCCO[C@H]12 | 15.38 | - | 8.818
CC(NCc1cccc(S(=O)(=O)N(C)C)c1)c1ccccn1 (configuration not stated) | 2.74 | 4.781 | -4.298
COc1cc(CNCC2CNc3ccnn3C2)ccn1 (configuration not stated) | 8.772 | 1.118 | 2.319
CC1=NOC2(CCN(Cc3c[nH]c4ccccc34)CC2)C1 | -4.138 | -4.211 | 0.605
CC(C)c1nc2c(n1C)CCN(Cc1nc(-c3cccnc3)no1)C2 | 18.18 | 5.867 | -3.837
Cc1nc(-c2ccnc(N3CCNCC3)n2)no1 | 18.75 | 0.9206 | 2.43
COc1cc(NCc2ccccc2-n2cncn2)nc(N)n1 | 16.46 | 0.3802 | 3.286
CCN(Cc1ccoc1)C(=O)NC1CCN(CC2CCCC2)CC1 | 28.57 | - | 2.993
CC(=O)N(C)CC(=O)NC1(c2ccc(Cl)c(Cl)c2)CC1 | 21.98 | -1.098 | 0.2649
CNC(=O)CNCC1(O)CCCN(Cc2ccc(F)c(F)c2)C1=O (configuration not stated) | 24.71 | -2.284 | -3.938
Cc1cc(N2CCC(O)(CN(C)C(=O)CCN)C2)c2cnccc2n1 (configuration not stated) | 10.74 | -5.708 | -4.4
O=C(CC1Cn2ncnc2NC1=O)Nc1cccc(C(F)(F)F)c1 (configuration not stated) | 2.759 | -1.316 | -4.754
CN(C)c1ccc(C(=O)Nc2ccn(CC(N)=O)n2)cn1 | 17.7 | 0.1258 | 2.449
Cc1nn(C)cc1C1=NS(=O)(=O)N(C)C(C(=O)Nc2ccc(Br)cc2)=C1 | 1.408 | -6.413 | -2.242
COCCN1CCO[C@H]2CCN(C(=O)c3cccs3)CC[C@@H]21 | 3.419 | - | -0.4845
Cn1c(NCC(O)c2ccc(F)cc2)c(C#N)c(=O)n(C)c1=O (configuration not stated) | 11.86 | 0.7874 | -5.731
C=Cn1cc(CN2CCN(CC3(c4ccccc4)CC3)CC2)c(C)n1 | 8.451 | 4.439 | -4.617
CC(=O)N1CC(C)CN(C(=O)c2cccnc2C)c2ccccc21 (configuration not stated) | 22.34 | 5.387 | 2.71
Cc1nnc(C(C)NCC2(c3c(F)cccc3F)CCCC2)o1 (configuration not stated) | 11.54 | -4.478 | -0.387
CC(=O)NCCCNC(=O)N1CCN(c2cc(F)ccc2F)CC1 | 8.333 | 5.251 | 2.21
N#Cc1ccc(N2CCC3(CC2)CC(Oc2cccnc2)CO3)cc1 (configuration not stated) | 40.35 | -37 | 1.903
Cc1nn(C(C)C)c(C)c1S(=O)(=O)Nc1cccc(C(=O)O)c1 | 28.57 | - | 2.374
CCN(CC)Cc1nc2c(o1)CN(C(=O)c1ccc3ncccc3c1)C2 | 2.564 | 3.75 | -2.891
O=C(Nc1ccc(Cl)cc1C(=O)NCCN1CCOCC1)c1ccco1 | 1.418 | 5.594 | 1.327
Cc1noc([C@]23COC[C@H]2CN(C(=O)C2CCOCC2)C3)n1 | 5.556 | 1.935 | 2.323
O=C(N1CCCC1)N1C[C@H]2CC[C@@H]1CN(Cc1ccncc1)C2 | -8.889 | -2.19 | -0.2179
NC(=O)c1cccc(OCC(=O)N2CCCC(n3cccn3)C2)c1 (configuration not stated) | 11.57 | -1.08 | 1.383
Cc1cccc(CN2CC[C@H]3[C@@H]2CC(=O)N3CC2CC2)n1 | 19.23 | 2.445 | 2.471
CCCC(C#N)NC(=O)COC1CCCCC1 (configuration not stated) | 11.11 | 5.186 | 10.5
Cc1ncsc1CN1CC[C@H]2OCC[C@@]2(C(=O)N(C)C)C1 | 7.965 | -1.895 | -0.8765
CN(C)C[C@@H]1OC[C@H]2CN(Cc3ccoc3)CC[C@H]21 | 22.37 | -42.99 | -5.013
CNC(=O)COc1ccccc1CNC1CCc2nc(C)nn2C1 (configuration not stated) | 12.7 | -1.621 | -2.999
Cc1cc(F)cc(S(=O)(=O)Nc2ccn(CCCC#N)n2)c1 | 21.05 | -2.785 | -2.249
COc1cccc2c3c(c(=O)[nH]c12)CCC(C)(C)O3 | 5.747 | 1.79 | 2.365
Cc1nc(N2CCC3(CCCNC3=O)C2)nc2c1CCCC2 (configuration not stated) | 13.7 | 7.09 | 2.534
CCn1c(C)nnc1CN(C)C1CCN(CCCOC)C1 (configuration not stated) | 24 | 5.641 | 2.267
Cc1ncc2c(n1)CN(Cc1nc(-c3ccco3)oc1C)CC2 | 36.47 | 5.502 | 3.028
COCCc1noc(CN2CCCC2Cn2nc(C)nc2C)n1 (configuration not stated) | 14.04 | -3.851 | 30.53
C[C@@H]1CN(C(=O)Cn2ccc3ncccc3c2=O)C[C@H](C)O1 | 15.69 | 4.294 | 3.865
Cc1nc(C)c(-c2ccn(CC(=O)Nc3cnn(C)n3)n2)s1 | 17.78 | 1.961 | 2.716
Cc1nn(C)c(C)c1C1CCCN1Cc1nc(-c2cccs2)no1 (configuration not stated) | 5.357 | 10.09 | 2.531
CCOc1ccc(NC(=O)Nc2cc(N3CCCCC3)ncn2)cc1 | 13.91 | 10.36 | -1.14
Cc1cc(C)nc(NC2CC(=O)N(C)C2)n1 (configuration not stated) | 7.843 | 1.595 | 1.727
CC(C)CN(C(=O)COc1ccc(C(N)=O)cc1)C1CCN(C)CC1 | 8.571 | 5.4 | -0.5038
CN(CC(=O)NCC(F)(F)F)C(=O)c1ccc(=O)[nH]c1 | 24.39 | 0.8906 | 2.673

Once more, the final 3:

{"compound": "Cc1cc(C)nc(NC2CC(=O)N(C)C2)n1", "stereo": "configuration not stated", "LiHisRS": 7.843, "CoaBC": 1.595, "MtTrpRS": 1.727}
{"compound": "CC(C)CN(C(=O)COc1ccc(C(N)=O)cc1)C1CCN(C)CC1", "LiHisRS": 8.571, "CoaBC": 5.4, "MtTrpRS": -0.5038}
{"compound": "CN(CC(=O)NCC(F)(F)F)C(=O)c1ccc(=O)[nH]c1", "LiHisRS": 24.39, "CoaBC": 0.8906, "MtTrpRS": 2.673}